PubChem BioAssay AID1259254 | NCATS | 2017

Screen: 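Finding genes that stop cells copying their DNA twice in one cycle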 (primary screen)
Cell system: human HCT116 colorectal cancer cells
Reagent: single siRNA against human genes
Duration: 3 days
Measured: 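Imaged Hoechst DNA stain sorts each cell into a cycle phase by DNA amount; per plate, G2 fraction set to 0% for non-targeting and 100% for GMNN siRNA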
Scale: G2 robust z-score and G2 cells, % of GMNN control: higher = more G2 cells, more excess DNA replication
Rule for the call: 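An siRNA counts as active if its G2 robust z-score lies at least 5 MADs above the screen median; here such calls match roughly 38% of GMNN control or more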
Shown is an unselected part of about 59,000 deposited reagents. In the full data, about 1,550 (2.6%) are marked active. 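G2 share is only a proxy for re-replication; each gene was hit by three separate siRNAs, and active genes were retested.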 The numbers tell different reagents against one gene apart. Further read-outs or replicates are left out here. Not stated in the record: the amount of reagent.

What did the screen give for RPS3AP5 (GeneID 439992) #1?
G2 robust z-score: 4.94; G2 cells, % of GMNN control: 37.7; call: inactive

With RPS3AP5 (GeneID 439992) #2, what was measured?
G2 robust z-score: -0.375; G2 cells, % of GMNN control: 0.327; call: inactive

With RPS3AP5 (GeneID 439992) #3, how do the results read?
G2 robust z-score: 5.84; G2 cells, % of GMNN control: 44; call: active

With PSMC3 (GeneID 5702) #1, what was measured?
G2 robust z-score: 2.39; G2 cells, % of GMNN control: 19.8; call: inactive

For PSMC3 (GeneID 5702) #2, what does the deposit list?
G2 robust z-score: 1.05; G2 cells, % of GMNN control: 10.4; call: inactive

What did the screen give for PSMC3 (GeneID 5702) #3?
G2 robust z-score: 0.136; G2 cells, % of GMNN control: 3.93; call: inactive

For FCRL1 (GeneID 115350) #1, how do the results read?
G2 robust z-score: 0.828; G2 cells, % of GMNN control: 8.8; call: inactive

How did the screen score FCRL1 (GeneID 115350) #2?
G2 robust z-score: -0.588; G2 cells, % of GMNN control: -1.17; call: inactive

With FCRL1 (GeneID 115350) #3, what does the deposit list?
G2 robust z-score: 0.865; G2 cells, % of GMNN control: 9.05; call: inactive

For MECP2 (GeneID 4204) #1, what was measured?
G2 robust z-score: 0.464; G2 cells, % of GMNN control: 6.24; call: inactive

What did the screen give for MECP2 (GeneID 4204) #2?
G2 robust z-score: -1.03; G2 cells, % of GMNN control: -4.26; call: inactive

With MECP2 (GeneID 4204) #3, how do the results read?
G2 robust z-score: -0.639; G2 cells, % of GMNN control: -1.53; call: inactive

2 entries already listed, ordered by “G2 cells, % of GMNN control”, low to high:
MECP2 (GeneID 4204) #2 — G2 robust z-score: -1.03; G2 cells, % of GMNN control: -4.26; call: inactive
MECP2 (GeneID 4204) #1 — G2 robust z-score: 0.464; G2 cells, % of GMNN control: 6.24; call: inactive

The list goes on.
For LRP10 (GeneID 26020) #1, what was measured?
G2 robust z-score: -0.847; G2 cells, % of GMNN control: -3; call: inactive

What did the screen give for LRP10 (GeneID 26020) #2?
G2 robust z-score: 0.746; G2 cells, % of GMNN control: 8.22; call: inactive

How did the screen score LRP10 (GeneID 26020) #3?
G2 robust z-score: 0.0378; G2 cells, % of GMNN control: 3.23; call: inactive

For B4GALT5 (GeneID 9334) #1, what does the deposit list?
G2 robust z-score: 0.324; G2 cells, % of GMNN control: 5.25; call: inactive

With B4GALT5 (GeneID 9334) #2, how do the results read?
G2 robust z-score: 0.119; G2 cells, % of GMNN control: 3.8; call: inactive

For B4GALT5 (GeneID 9334) #3, how do the results read?
G2 robust z-score: 2.7; G2 cells, % of GMNN control: 21.9; call: inactive

For DAPL1 (GeneID 92196) #1, how do the results read?
G2 robust z-score: -0.385; G2 cells, % of GMNN control: 0.26; call: inactive

With DAPL1 (GeneID 92196) #2, how do the results read?
G2 robust z-score: -0.377; G2 cells, % of GMNN control: 0.313; call: inactive

For DAPL1 (GeneID 92196) #3, what was measured?
G2 robust z-score: 2.91; G2 cells, % of GMNN control: 23.5; call: inactive

What is on record for JHY (GeneID 79864) #1?
G2 robust z-score: -0.85; G2 cells, % of GMNN control: -3.01; call: inactive

What is on record for JHY (GeneID 79864) #2?
G2 robust z-score: 2.46; G2 cells, % of GMNN control: 20.3; call: inactive

What is on record for JHY (GeneID 79864) #3?
G2 robust z-score: 1.45; G2 cells, % of GMNN control: 13.1; call: inactive
